Experimental data taken from publication PMC5433425 (PeerJ, 2017).
Like-named read-outs stand apart in the source and are kept apart here. Further values from the same series stand in other lists.

Tested on: E. coli AG100A

Question: Which results are given for `CC[n+]1c(-c2ccccc2)c2cc(N)ccc2c2ccc(N)cc21` [EtBr, ethidium bromide]?
Answer: EtBr fluorescence (EtBr 0.125 µg/ml, cycle 1): 1.587; EtBr fluorescence (EtBr 0.125 µg/ml, cycle 2): 1.646; EtBr fluorescence (EtBr 0.125 µg/ml, cycle 3): 1.75; EtBr fluorescence (EtBr 0.125 µg/ml, cycle 4): 1.846; EtBr fluorescence (EtBr 0.125 µg/ml, cycle 5): 1.916; EtBr fluorescence (EtBr 0.125 µg/ml, cycle 6): 1.959; EtBr fluorescence (EtBr 0.125 µg/ml, cycle 7): 2.099; EtBr fluorescence (EtBr 0.125 µg/ml, cycle 8): 2.177; EtBr fluorescence (EtBr 0.125 µg/ml, cycle 9): 2.249; EtBr fluorescence (EtBr 0.125 µg/ml, cycle 10): 2.264; EtBr fluorescence (EtBr 0.125 µg/ml, cycle 11): 2.413; EtBr fluorescence (EtBr 0.125 µg/ml, cycle 12): 2.539; EtBr fluorescence (EtBr 0.125 µg/ml, cycle 13): 2.534; EtBr fluorescence (EtBr 0.125 µg/ml, cycle 14): 2.631; EtBr fluorescence (EtBr 0.125 µg/ml, cycle 15): 2.6554; EtBr fluorescence (EtBr 0.125 µg/ml, cycle 16): 2.7455; EtBr fluorescence (EtBr 0.125 µg/ml, cycle 17): 2.841; EtBr fluorescence (EtBr 0.125 µg/ml, cycle 18): 2.931; EtBr fluorescence (EtBr 0.125 µg/ml, cycle 19): 2.991; EtBr fluorescence (EtBr 0.125 µg/ml, cycle 20): 3.077; EtBr fluorescence (EtBr 0.125 µg/ml, cycle 21): 3.104; EtBr fluorescence (EtBr 0.125 µg/ml, cycle 22): 3.1693; EtBr fluorescence (EtBr 0.125 µg/ml, cycle 23): 3.1574; EtBr fluorescence (EtBr 0.5 µg/ml, cycle 1): 2.651; EtBr fluorescence (EtBr 0.5 µg/ml, cycle 2): 3.201; EtBr fluorescence (EtBr 0.5 µg/ml, cycle 4): 4.126; EtBr fluorescence (EtBr 0.5 µg/ml, cycle 5): 4.392; EtBr fluorescence (EtBr 0.5 µg/ml, cycle 6): 4.848; EtBr fluorescence (EtBr 0.5 µg/ml, cycle 7): 5.184; EtBr fluorescence (EtBr 0.5 µg/ml, cycle 8): 5.472; EtBr fluorescence (EtBr 0.5 µg/ml, cycle 9): 5.933; EtBr fluorescence (EtBr 0.5 µg/ml, cycle 10): 6.2583; EtBr fluorescence (EtBr 0.5 µg/ml, cycle 11): 6.734; EtBr fluorescence (EtBr 0.5 µg/ml, cycle 12): 7.012; EtBr fluorescence (EtBr 0.5 µg/ml, cycle 13): 7.3032; EtBr fluorescence (EtBr 0.5 µg/ml, cycle 14): 7.594; EtBr fluorescence (EtBr 0.5 µg/ml, cycle 15): 7.944; EtBr fluorescence (EtBr 0.5 µg/ml, cycle 16): 8.224; EtBr fluorescence (EtBr 0.5 µg/ml, cycle 17): 8.665; EtBr fluorescence (EtBr 0.5 µg/ml, cycle 18): 8.971; EtBr fluorescence (EtBr 0.5 µg/ml, cycle 19): 9.32; EtBr fluorescence (EtBr 0.5 µg/ml, cycle 20): 9.529; EtBr fluorescence (EtBr 0.5 µg/ml, cycle 21): 9.672; EtBr fluorescence (EtBr 0.5 µg/ml, cycle 22): 10.0306; EtBr fluorescence (EtBr 0.5 µg/ml, cycle 23): 10.2683; EtBr fluorescence (EtBr 1 µg/ml, cycle 1): 6.097; EtBr fluorescence (EtBr 1 µg/ml, cycle 2): 7.549; EtBr fluorescence (EtBr 1 µg/ml, cycle 3): 8.8607; EtBr fluorescence (EtBr 1 µg/ml, cycle 4): 9.904; EtBr fluorescence (EtBr 1 µg/ml, cycle 7): 12.9196; EtBr fluorescence (EtBr 1 µg/ml, cycle 8): 13.9929; EtBr fluorescence (EtBr 1 µg/ml, cycle 9): 15.0008; EtBr fluorescence (EtBr 1 µg/ml, cycle 10): 15.8398; EtBr fluorescence (EtBr 1 µg/ml, cycle 11): 16.9387; EtBr fluorescence (EtBr 1 µg/ml, cycle 12): 18.2898; EtBr fluorescence (EtBr 1 µg/ml, cycle 13): 19.2285; EtBr fluorescence (EtBr 1 µg/ml, cycle 14): 20.233; EtBr fluorescence (EtBr 1 µg/ml, cycle 15): 21.445; EtBr fluorescence (EtBr 1 µg/ml, cycle 16): 22.229; EtBr fluorescence (EtBr 1 µg/ml, cycle 17): 23.6389; EtBr fluorescence (EtBr 1 µg/ml, cycle 18): 24.5113; EtBr fluorescence (EtBr 1 µg/ml, cycle 23): 29.5388; EtBr fluorescence (EtBr 1 µg/ml, cycle 24): 30.5695; EtBr fluorescence (EtBr 1 µg/ml, cycle 25): 30.98; EtBr fluorescence (EtBr 1 µg/ml, cycle 26): 32.2373; EtBr fluorescence (EtBr 1 µg/ml, cycle 27): 32.5478; EtBr fluorescence (EtBr 1 µg/ml, cycle 28): 33.5269; EtBr fluorescence (EtBr 1 µg/ml, cycle 29): 34.0992; EtBr fluorescence (EtBr 1 µg/ml, cycle 30): 35.0568; EtBr fluorescence (EtBr 2 µg/ml, cycle 1): 13.8754; EtBr fluorescence (EtBr 2 µg/ml, cycle 2): 17.6616; EtBr fluorescence (EtBr 2 µg/ml, cycle 3): 21.3751; EtBr fluorescence (EtBr 2 µg/ml, cycle 4): 24.3701; EtBr fluorescence (EtBr 2 µg/ml, cycle 6): 30.2214; EtBr fluorescence (EtBr 2 µg/ml, cycle 7): 32.7563; EtBr fluorescence (EtBr 2 µg/ml, cycle 8): 35.3071; EtBr fluorescence (EtBr 2 µg/ml, cycle 9): 38.5094; EtBr fluorescence (EtBr 2 µg/ml, cycle 10): 40.3166; EtBr fluorescence (EtBr 2 µg/ml, cycle 11): 43.5877; EtBr fluorescence (EtBr 2 µg/ml, cycle 12): 45.9794; EtBr fluorescence (EtBr 2 µg/ml, cycle 13): 48.9694; EtBr fluorescence (EtBr 2 µg/ml, cycle 14): 51.1321; EtBr fluorescence (EtBr 2 µg/ml, cycle 15): 53.474; EtBr fluorescence (EtBr 2 µg/ml, cycle 16): 55.7291; EtBr fluorescence (EtBr 2 µg/ml, cycle 17): 58.1283; EtBr fluorescence (EtBr 2 µg/ml, cycle 18): 60.3944; EtBr fluorescence (EtBr 2 µg/ml, cycle 19): 61.6874; EtBr fluorescence (EtBr 2 µg/ml, cycle 20): 63.905; EtBr fluorescence (EtBr 2 µg/ml, cycle 21): 66.148; EtBr fluorescence (EtBr 2 µg/ml, cycle 22): 68.0158; EtBr fluorescence (EtBr 2 µg/ml, cycle 23): 69.3444; EtBr fluorescence (EtBr 2 µg/ml, cycle 24): 71.4819; EtBr fluorescence (EtBr 2 µg/ml, cycle 25): 72.9181; EtBr fluorescence (EtBr 2 µg/ml, cycle 26): 74.6918
